Measurements reported in PubChem BioAssay AID1259424 (University of Nebraska Medical Center, 2018)

- Assay: 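Rank knockdowns across the genome by resemblance to the KSR1 depletion profile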 (primary screen)
- Cell system: human HCT116 colon cancer cells
- Reagent: siRNA pool against human genes, 50 nM
- Measurement: 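Six signature mRNAs by branched-DNA multiplex assay, scaled to two housekeeping genes and non-targeting median, log2; matched to mean KSR1 knockdown profile by Pearson correlation and euclidean distance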
- Direction: mean correlation with KSR1 profile: higher = expression change more like KSR1 knockdown; mean distance from KSR1 profile: higher = expression change less like KSR1 knockdown
Here is a random part of about 14,000 reagents tested. 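Higher correlation or smaller distance means closer resemblance to KSR1 loss; control wells, including KSR1 knockdowns, recur on many plates.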 Further read-outs or replicates are left out here. Not stated in the record: the time to read-out.

After knock-down of IP6K1 (inositol hexakisphosphate kinase 1) the results were mean correlation with KSR1 profile 0.951; mean distance from KSR1 profile 0.965.
Against TSPAN14 (tetraspanin 14), the entry reads mean correlation with KSR1 profile 0.733; mean distance from KSR1 profile 1.5.
After knock-down of INTS15 (integrator complex subunit 15), the record shows mean correlation with KSR1 profile -0.3; mean distance from KSR1 profile 2.91.
For SLC66A2, the entry reads mean correlation with KSR1 profile 0.759; mean distance from KSR1 profile 0.97.
After knock-down of GRWD1 (glutamate rich WD repeat containing 1) the results were mean correlation with KSR1 profile 0.876; mean distance from KSR1 profile 1.69.
For CAMKK2 (calcium/calmodulin dependent protein kinase kinase 2), the values are mean correlation with KSR1 profile 0.271; mean distance from KSR1 profile 2.26.
TRMT10C (tRNA methyltransferase 10C, mitochondrial RNase P subunit) showed mean correlation with KSR1 profile -0.541; mean distance from KSR1 profile 1.96.
Depletion of OMG (oligodendrocyte myelin glycoprotein) resulted in: mean correlation with KSR1 profile -0.171; mean distance from KSR1 profile 1.73.

2 entries already listed, arranged by “mean distance from KSR1 profile”, highest first:
GRWD1 (glutamate rich WD repeat containing 1) — mean correlation with KSR1 profile = 0.876; mean distance from KSR1 profile = 1.69
SLC66A2 — mean correlation with KSR1 profile = 0.759; mean distance from KSR1 profile = 0.97

Further reagents follow:
DCTN5 (dynactin subunit 5) gave mean correlation with KSR1 profile 0.467; mean distance from KSR1 profile 1.96.
Knock-down of RHOC (ras homolog family member C) resulted in: mean correlation with KSR1 profile -0.552; mean distance from KSR1 profile 2.17.
Depletion of ERMN (ermin) gave: mean correlation with KSR1 profile -0.671; mean distance from KSR1 profile 5.33.
With knock-down of STYK1 (STY kinase 1) the results were mean correlation with KSR1 profile -0.266; mean distance from KSR1 profile 2.67.
